Reference: PubChem BioAssay AID1224826 (NIAID, 2016)
The whole screen tested about 17,000 reagents; below is a part drawn at random. Of all reagents, about 1,110 (6.6%) got an active call. 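Active means lowered or raised reporter signal; replicate intensities are raw and not normalised per plate.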 A number with no mark means an inactive call. Some reagents were tested in more than one well and are listed for each. Further read-outs or replicates are left out here.

Screen: 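Genes that change LPS-induced Tnf promoter activity in mouse macrophages when knocked down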 (primary screen)
Cell system: RAW264.7 G9 macrophages from mouse bearing reporters for p65 (GFP) and the Tnf promoter (mCherry)
Reagents: siRNA pool against mouse genes, 100 nM
Timing: 16 h of LPS stimulation, after 2 days of siRNA transfection
Treatment: bacterial lipopolysaccharide (Salmonella minnesota R595), 10 ng/ml
Read-out: 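Nuclear mCherry signal of the Tnf promoter reporter measured by imaging after background removal, scaled to each plate median and turned into robust z-scores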
Scale: Tnf reporter robust z-score: higher = stronger Tnf promoter reporter signal after LPS
Rule for the call: 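a well counts as active at a score of -1.3 or below (Tlr4 knock-down control median) or above 3 (raised signal); controls and wells holding fewer than 50 cells are excluded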
Meaning of the calls: active = Tnf reporter clearly lowered or raised; inactive = no clear change in Tnf reporter

gene symbol | Tnf reporter robust z-score | fewer than 50 cells in well
Tra2b (transformer 2 beta) | 3.57 (active) | enough cells in well
Tra2b (transformer 2 beta) | 0 | enough cells in well
Ngly1 (N-glycanase 1) | -0.03 | enough cells in well
Gsdmc (gasdermin C) | -0.54 | enough cells in well
Tmed11 (transmembrane p24 trafficking protein 11) | -0.97 | enough cells in well
Rbp3 (retinol binding protein 3, interstitial) | 0.24 | enough cells in well
Slc16a13 | -0.51 | enough cells in well
Ppp1r1a (protein phosphatase 1, regulatory inhibitor subunit 1A) | 1.73 | enough cells in well
Ahrr (aryl-hydrocarbon receptor repressor) | 0.8 | enough cells in well
Pcif1 (phosphorylated CTD interacting factor 1) | -0.43 | enough cells in well
Ppargc1b | 0.18 | enough cells in well
Adrb2 (adrenergic receptor, beta 2) | -0.96 | enough cells in well
Adrb2 (adrenergic receptor, beta 2) | -0.23 | enough cells in well
Zfp280d (zinc finger protein 280D) | -1.05 | enough cells in well
Or4c108 (olfactory receptor family 4 subfamily C member 108) | 0.43 | enough cells in well
Fcer1a (Fc receptor, IgE, high affinity I, alpha polypeptide) | 0.42 | enough cells in well
Tex21 (testis expressed gene 21) | 1.5 | enough cells in well
5830402J09 | -0.28 | enough cells in well
Vmn1r-ps103 (vomeronasal 1 receptor, pseudogene 103) | 0.44 | enough cells in well
Ska3 (spindle and kinetochore associated complex subunit 3) | -0.17 | enough cells in well
Dnph1 (2'-deoxynucleoside 5'-phosphate N-hydrolase 1) | 0.93 | enough cells in well
Oacyl (O-acyltransferase like) | – | fewer than 50 cells per well; well left out of calls
Ptpn1 (protein tyrosine phosphatase, non-receptor type 1) | -0.43 | enough cells in well
Pnck (pregnancy upregulated non-ubiquitously expressed CaM kinase) | – | fewer than 50 cells per well; well left out of calls
Mdm2 (MDM2 proto-oncogene) | – | fewer than 50 cells per well; well left out of calls
Bmi1 (Bmi1 proto-oncogene, polycomb ring finger) | 1.02 | enough cells in well
Defa5 (defensin, alpha, 5) | -0.21 | enough cells in well
C230071H18Rik (retired record) | – | fewer than 50 cells per well; well left out of calls
Glyctk (glycerate kinase) | -0.38 | enough cells in well
Rabgap1 (RAB GTPase activating protein 1) | 1.65 | enough cells in well
Gbx2 (gastrulation brain homeobox 2) | 0.68 | enough cells in well
Kcna2 | -0.15 | enough cells in well
Ptx3 (pentraxin related gene) | -0.65 | enough cells in well
Epha4 (Eph receptor A4) | 0.56 | enough cells in well
Ppp1r3f (protein phosphatase 1, regulatory subunit 3F) | -1.14 | enough cells in well
Scai (suppressor of cancer cell invasion) | -0.12 | enough cells in well
Ube2d1 (ubiquitin-conjugating enzyme E2D 1) | 0.55 | enough cells in well
Wdr77 (WD repeat domain 77) | – | fewer than 50 cells per well; well left out of calls
Snta1 (syntrophin, acidic 1) | -1 | enough cells in well
Tcea1 (transcription elongation factor A (SII) 1) | 0.14 | enough cells in well

6 successive entries from above, for reference:
gene symbol | Tnf reporter robust z-score | fewer than 50 cells in well
Ppargc1b | 0.18 | enough cells in well
Adrb2 (adrenergic receptor, beta 2) | -0.96 | enough cells in well
Adrb2 (adrenergic receptor, beta 2) | -0.23 | enough cells in well
Zfp280d (zinc finger protein 280D) | -1.05 | enough cells in well
Or4c108 (olfactory receptor family 4 subfamily C member 108) | 0.43 | enough cells in well
Fcer1a (Fc receptor, IgE, high affinity I, alpha polypeptide) | 0.42 | enough cells in well
